Earlier results as cited in US12378248B2 (The United States of America, as represented by the …, priority 2018, dated 2025).
For at least one compound, name, drawing or mass did not settle the structure.

System: wild-type C57BL/6J mice
Conditions: 3 mg/kg ip; marked with reference 30; cited from earlier work

SMILES: O[C@@H]1[C@H](O)[C@@H](CCl)O[C@H]1n1cnc2c(NC3CC4CCC3C4)ncnc21 (stereo partly shown) [Compound 4, reference compound]
- ARs causing hypothermia: A1AR > A3AR^30
